# In the supplement of paper PMC11438910:
# The list shows a part of the results. Only a few entries rise above the background.
# B1: 4-80.3 (protein)
# chain 1: QVQLQESGPGLVKPSETLSLTCAVSGGSFSSYWWSWIRQPPGKGLEWIGEINGNSGSTNYNPSLKSRVTISKDASKNQFSLKLSSVTAADTAVYYCARYKNVWGRGVLVTVSS
# chain 2: DVVMTQSPLSLPITPGQPASISCRSSQSLVHSNGNTYLSWYQQKPGQPPRRLIYQVSNRDSGVPDRFSGSGAGTDFTLKISRVEAEDVGVYYCGQGTNVPTFGQGTKVEIK
# What was measured:
# Experiment in all cases: fluorescence intensity of antibody binding to polysaccharide-coupled beads; higher = stronger binding
# [1] = molecular target: pneumococcal polysaccharide Pn2
# [2] = molecular target: pneumococcal polysaccharide Pn20A
# [3] = molecular target: pneumococcal polysaccharide Pn20B
# [4] = molecular target: pneumococcal polysaccharide Pn21
# [5] = molecular target: pneumococcal polysaccharide Pn22A
# [6] = molecular target: pneumococcal polysaccharide Pn22F
# [7] = molecular target: pneumococcal polysaccharide Pn23A
# [8] = molecular target: pneumococcal polysaccharide Pn23B
# [9] = molecular target: pneumococcal polysaccharide Pn23F
# [10] = molecular target: pneumococcal polysaccharide Pn24A
# [11] = molecular target: pneumococcal polysaccharide Pn24B
# [12] = molecular target: pneumococcal polysaccharide Pn24F
# [13] = molecular target: pneumococcal polysaccharide Pn25A
# [14] = molecular target: pneumococcal polysaccharide Pn25F
# [15] = molecular target: pneumococcal polysaccharide Pn27
# [16] = molecular target: pneumococcal polysaccharide Pn28A
# [17] = molecular target: pneumococcal polysaccharide Pn28F
# [18] = molecular target: pneumococcal polysaccharide Pn29
# [19] = molecular target: pneumococcal polysaccharide Pn3
# [20] = molecular target: pneumococcal polysaccharide Pn31
# [21] = molecular target: pneumococcal polysaccharide Pn32A
# [22] = molecular target: pneumococcal polysaccharide Pn32F
# [23] = molecular target: pneumococcal polysaccharide Pn33A
# [24] = molecular target: pneumococcal polysaccharide Pn33B
# [25] = antibody concentration 2337.65 ng/mL
# [26] = antibody concentration 12500 ng/mL
# [27] = antibody concentration 0.1 ng/mL
# [28] = antibody concentration 0.534724 ng/mL
# [29] = antibody concentration 2.8593 ng/mL
# [30] = antibody concentration 15.2894 ng/mL
# [31] = antibody concentration 81.7561 ng/mL
# [32] = antibody concentration 437.17 ng/mL
binder,measurement,setting,value
B1,fluorescence intensity,[1]; [25],27.5 MFI
same,fluorescence intensity,[1]; [26],58 MFI
same,fluorescence intensity,[2]; [27],25.5 MFI
same,fluorescence intensity,[2]; [28],22.5 MFI
same,fluorescence intensity,[2]; [29],23 MFI
same,fluorescence intensity,[2]; [30],22.5 MFI
same,fluorescence intensity,[2]; [31],23 MFI
same,fluorescence intensity,[2]; [32],27 MFI
same,fluorescence intensity,[2]; [25],81 MFI
same,fluorescence intensity,[2]; [26],539 MFI
same,fluorescence intensity,[3]; [27],24.8 MFI
same,fluorescence intensity,[3]; [28],25 MFI
same,fluorescence intensity,[3]; [29],23 MFI
same,fluorescence intensity,[3]; [30],24.5 MFI
same,fluorescence intensity,[3]; [31],24 MFI
same,fluorescence intensity,[3]; [32],24.5 MFI
same,fluorescence intensity,[3]; [25],32.5 MFI
same,fluorescence intensity,[3]; [26],104 MFI
same,fluorescence intensity,[4]; [27],18 MFI
same,fluorescence intensity,[4]; [28],19 MFI
same,fluorescence intensity,[4]; [29],20 MFI
same,fluorescence intensity,[4]; [30],19 MFI
same,fluorescence intensity,[4]; [31],20 MFI
same,fluorescence intensity,[4]; [32],19.5 MFI
same,fluorescence intensity,[4]; [25],27.5 MFI
same,fluorescence intensity,[4]; [26],55.5 MFI
same,fluorescence intensity,[5]; [27],23 MFI
same,fluorescence intensity,[5]; [28],22 MFI
same,fluorescence intensity,[5]; [29],22 MFI
same,fluorescence intensity,[5]; [30],18.8 MFI
same,fluorescence intensity,[5]; [31],20 MFI
same,fluorescence intensity,[5]; [32],23.5 MFI
same,fluorescence intensity,[5]; [25],44 MFI
same,fluorescence intensity,[5]; [26],203 MFI
same,fluorescence intensity,[6]; [27],33 MFI
same,fluorescence intensity,[6]; [28],33 MFI
same,fluorescence intensity,[6]; [29],31.8 MFI
same,fluorescence intensity,[6]; [30],31.5 MFI
same,fluorescence intensity,[6]; [31],32.2 MFI
same,fluorescence intensity,[6]; [32],34.5 MFI
same,fluorescence intensity,[6]; [25],46 MFI
same,fluorescence intensity,[6]; [26],88.5 MFI
same,fluorescence intensity,[7]; [27],21.2 MFI
same,fluorescence intensity,[7]; [28],24 MFI
same,fluorescence intensity,[7]; [29],24.5 MFI
same,fluorescence intensity,[7]; [30],27.8 MFI
same,fluorescence intensity,[7]; [31],32.5 MFI
same,fluorescence intensity,[7]; [32],51 MFI
same,fluorescence intensity,[7]; [25],112 MFI
same,fluorescence intensity,[7]; [26],378 MFI
same,fluorescence intensity,[8]; [27],33.5 MFI
same,fluorescence intensity,[8]; [28],30.5 MFI
same,fluorescence intensity,[8]; [29],31 MFI
same,fluorescence intensity,[8]; [30],31.8 MFI
same,fluorescence intensity,[8]; [31],31.2 MFI
same,fluorescence intensity,[8]; [32],36.2 MFI
same,fluorescence intensity,[8]; [25],39.8 MFI
same,fluorescence intensity,[8]; [26],60.8 MFI
same,fluorescence intensity,[9]; [27],17.2 MFI
same,fluorescence intensity,[9]; [28],20 MFI
same,fluorescence intensity,[9]; [29],17.5 MFI
same,fluorescence intensity,[9]; [30],20 MFI
same,fluorescence intensity,[9]; [31],18 MFI
same,fluorescence intensity,[9]; [32],24 MFI
same,fluorescence intensity,[9]; [25],30.5 MFI
same,fluorescence intensity,[9]; [26],82.5 MFI
same,fluorescence intensity,[10]; [27],17 MFI
same,fluorescence intensity,[10]; [28],16 MFI
same,fluorescence intensity,[10]; [29],16.5 MFI
same,fluorescence intensity,[10]; [30],15.5 MFI
same,fluorescence intensity,[10]; [31],15.5 MFI
same,fluorescence intensity,[10]; [32],16.2 MFI
same,fluorescence intensity,[10]; [25],20.5 MFI
same,fluorescence intensity,[10]; [26],48.8 MFI
same,fluorescence intensity,[11]; [27],20.5 MFI
same,fluorescence intensity,[11]; [28],16.2 MFI
same,fluorescence intensity,[11]; [29],17 MFI
same,fluorescence intensity,[11]; [30],18.2 MFI
same,fluorescence intensity,[11]; [31],19 MFI
same,fluorescence intensity,[11]; [32],19.8 MFI
same,fluorescence intensity,[11]; [25],35.5 MFI
same,fluorescence intensity,[11]; [26],116 MFI
same,fluorescence intensity,[12]; [27],15.5 MFI
same,fluorescence intensity,[12]; [28],17.5 MFI
same,fluorescence intensity,[12]; [29],20.5 MFI
same,fluorescence intensity,[12]; [30],17.5 MFI
same,fluorescence intensity,[12]; [31],17.8 MFI
same,fluorescence intensity,[12]; [32],22 MFI
same,fluorescence intensity,[12]; [25],32.2 MFI
same,fluorescence intensity,[12]; [26],84.5 MFI
same,fluorescence intensity,[13]; [27],22.8 MFI
same,fluorescence intensity,[13]; [28],24 MFI
same,fluorescence intensity,[13]; [29],24 MFI
same,fluorescence intensity,[13]; [30],25 MFI
same,fluorescence intensity,[13]; [31],26 MFI
same,fluorescence intensity,[13]; [32],27.5 MFI
same,fluorescence intensity,[13]; [25],37.5 MFI
same,fluorescence intensity,[13]; [26],71.5 MFI
same,fluorescence intensity,[14]; [27],30 MFI
same,fluorescence intensity,[14]; [28],30.2 MFI
same,fluorescence intensity,[14]; [29],32.2 MFI
same,fluorescence intensity,[14]; [30],31 MFI
same,fluorescence intensity,[14]; [31],33 MFI
same,fluorescence intensity,[14]; [32],34.5 MFI
same,fluorescence intensity,[14]; [25],43 MFI
same,fluorescence intensity,[14]; [26],102 MFI
same,fluorescence intensity,[15]; [27],16.8 MFI
same,fluorescence intensity,[15]; [28],16.5 MFI
same,fluorescence intensity,[15]; [29],17.5 MFI
same,fluorescence intensity,[15]; [30],18.5 MFI
same,fluorescence intensity,[15]; [31],18.5 MFI
same,fluorescence intensity,[15]; [32],33.5 MFI
same,fluorescence intensity,[15]; [25],132 MFI
same,fluorescence intensity,[15]; [26],685 MFI
same,fluorescence intensity,[16]; [27],26 MFI
same,fluorescence intensity,[16]; [28],27.2 MFI
same,fluorescence intensity,[16]; [29],28.5 MFI
same,fluorescence intensity,[16]; [30],28.5 MFI
same,fluorescence intensity,[16]; [31],28 MFI
same,fluorescence intensity,[16]; [32],31.5 MFI
same,fluorescence intensity,[16]; [25],36.2 MFI
same,fluorescence intensity,[16]; [26],75 MFI
same,fluorescence intensity,[17]; [27],30 MFI
same,fluorescence intensity,[17]; [28],32 MFI
same,fluorescence intensity,[17]; [29],30 MFI
same,fluorescence intensity,[17]; [30],33.5 MFI
same,fluorescence intensity,[17]; [31],32 MFI
same,fluorescence intensity,[17]; [32],36.2 MFI
same,fluorescence intensity,[17]; [25],73 MFI
same,fluorescence intensity,[17]; [26],318 MFI
same,fluorescence intensity,[18]; [27],14.5 MFI
same,fluorescence intensity,[18]; [28],18.2 MFI
same,fluorescence intensity,[18]; [29],17 MFI
same,fluorescence intensity,[18]; [30],17 MFI
same,fluorescence intensity,[18]; [31],17.5 MFI
same,fluorescence intensity,[18]; [32],24.5 MFI
same,fluorescence intensity,[18]; [25],81.2 MFI
same,fluorescence intensity,[18]; [26],516 MFI
same,fluorescence intensity,[19]; [27],13.8 MFI
same,fluorescence intensity,[19]; [28],14 MFI
same,fluorescence intensity,[19]; [29],14.5 MFI
same,fluorescence intensity,[19]; [30],18 MFI
same,fluorescence intensity,[19]; [31],35.8 MFI
same,fluorescence intensity,[19]; [32],220 MFI
same,fluorescence intensity,[19]; [25],762 MFI
same,fluorescence intensity,[19]; [26],2490 MFI
same,fluorescence intensity,[20]; [27],14 MFI
same,fluorescence intensity,[20]; [28],14.8 MFI
same,fluorescence intensity,[20]; [29],15.5 MFI
same,fluorescence intensity,[20]; [30],15.5 MFI
same,fluorescence intensity,[20]; [31],16 MFI
same,fluorescence intensity,[20]; [32],25 MFI
same,fluorescence intensity,[20]; [25],94 MFI
same,fluorescence intensity,[20]; [26],660 MFI
same,fluorescence intensity,[21]; [27],18.2 MFI
same,fluorescence intensity,[21]; [28],18.8 MFI
same,fluorescence intensity,[21]; [29],18.5 MFI
same,fluorescence intensity,[21]; [30],19 MFI
same,fluorescence intensity,[21]; [31],18 MFI
same,fluorescence intensity,[21]; [32],22.8 MFI
same,fluorescence intensity,[21]; [25],37.8 MFI
same,fluorescence intensity,[21]; [26],138 MFI
same,fluorescence intensity,[22]; [27],26 MFI
same,fluorescence intensity,[22]; [28],28.5 MFI
same,fluorescence intensity,[22]; [29],28.5 MFI
same,fluorescence intensity,[22]; [30],30 MFI
same,fluorescence intensity,[22]; [31],31 MFI
same,fluorescence intensity,[22]; [32],39.5 MFI
same,fluorescence intensity,[22]; [25],60.8 MFI
same,fluorescence intensity,[22]; [26],161 MFI
same,fluorescence intensity,[23]; [27],18 MFI
same,fluorescence intensity,[23]; [28],17.5 MFI
same,fluorescence intensity,[23]; [29],18.5 MFI
same,fluorescence intensity,[23]; [30],16.5 MFI
same,fluorescence intensity,[23]; [31],18.2 MFI
same,fluorescence intensity,[23]; [32],27.8 MFI
same,fluorescence intensity,[23]; [25],214 MFI
same,fluorescence intensity,[23]; [26],1730 MFI
same,fluorescence intensity,[24]; [27],18.5 MFI
same,fluorescence intensity,[24]; [28],18.5 MFI

# A different layout for part of the listing above:
binder	measurement	setting	value
B1	fluorescence intensity	[11]; [32]	19.8 MFI
same	fluorescence intensity	[11]; [25]	35.5 MFI

# Reformatted: results already given
binder	measurement	setting	value
B1	fluorescence intensity	[2]; [28]	22.5 MFI
same	fluorescence intensity	[2]; [30]	22.5 MFI
same	fluorescence intensity	[7]; [28]	24 MFI
same	fluorescence intensity	[16]; [32]	31.5 MFI
same	fluorescence intensity	[18]; [32]	24.5 MFI
same	fluorescence intensity	[18]; [26]	516 MFI
same	fluorescence intensity	[23]; [32]	27.8 MFI

# In a second layout: results already given.
binder	measurement	setting	value
B1	fluorescence intensity	[1]; [26]	58 MFI
same	fluorescence intensity	[2]; [27]	25.5 MFI
